Source: patent publication US10627374B2, “LC-MS configuration for purification and detection of analytes having a broad range of hydrophobicites” (COHESIVE TECHNOLOGIES INC., priority 2010, dated 2020)

Columns and labels:
[1] = sensitivity of electrospray ionization (ESI) relative to APCI
[2] = approximate limit of quantitation (LOQ) by the single-configuration LC-MS method
[3] = LC-MS, Cyclone P clean-up column plus PFP analytical column, ammonium formate buffers
[4] = sensitivity ratio ESI relative to APCI

Row | SMILES | Approx [LOQ] [2] [ng/mL] | also measured
1 | CCCCCc1cc(O)c2c(c1)OC(C)(C)[C@@H]1CCC(C(=O)O)=C[C@@H]21 [11-norDelta-9-THC-COOH] | 5 | ESI/APCI [1]: 0.53
2 | C=C1CC[C@H](O)C/C1=C/C=C1\CCC[C@]2(C)[C@@H]([C@H](C)/C=C/[C@H](C)C(C)(C)O)CC[C@@H]12 [25OH vitamin D2, 25-hydroxyvitamin D2] | 10 | ESI/APCI [1]: 8.81
3 | C=C1CC[C@H](O)C/C1=C/C=C1\CCC[C@]2(C)[C@@H]([C@H](C)CCCC(C)(C)O)CC[C@@H]12 [25OH vitamin D3, 25-hydroxyvitamin D3] | 10 | ESI/APCI [1]: 3.32
4 | CC(N)Cc1ccccc1 (stereo not shown) [Amphetamine] | 50 | –
5 | C[C@]12CCC(=O)C=C1CC[C@@H]1[C@@H]2CC[C@]2(C)C(=O)CC[C@@H]12 [Androstenedione] | 0.01 | –
6 | CN1[C@H]2CC[C@@H]1[C@@H](C(=O)O)[C@@H](OC(=O)c1ccccc1)C2 [Benzoylecgonine] | 0.05 | ESI/APCI [1]: 12.2
7 | CS(=O)(=O)OCCCCOS(C)(=O)=O [Busulfan] | – | Approx [LOQ] [2, 3]: 1 ng/mL
8 | COc1ccc2c3c1O[C@H]1[C@@H](O)C=C[C@H]4[C@@H](C2)N(C)CC[C@@]341 [Codeine] | 2 | –
9 | C[C@]12CCC(=O)C=C1CC[C@@H]1[C@@H]2[C@@H](O)C[C@@]2(C)[C@H]1CC[C@]2(O)C(=O)CO [Cortisol (hydrocortisone)] | – | ESI/APCI [1, 4]: 54.5; Approx [LOQ] [2, 3]: 0.05 ng/mL
10 | C[C@]12CCC(=O)C=C1CC[C@@H]1[C@@H]2C(=O)C[C@@]2(C)[C@H]1CC[C@]2(O)C(=O)CO [Cortisone] | 0.05 | –
11 | CCCCCc1cc(O)c2c(c1)OC(C)(C)[C@@H]1CCC(C)=C[C@@H]21 [Delta9-THC] | 5 | ESI/APCI [1]: 0.75
12 | COc1ccc2c3c1O[C@H]1[C@@H](O)CC[C@H]4[C@@H](C2)N(C)CC[C@@]341 [Dihydrocodeine] | 0.2 | –
13 | CC(=O)O[C@@]12CO[C@@H]1C[C@H](O)[C@@]1(C)C(=O)[C@H](O)C3=C(C)[C@@H](OC(=O)[C@H](O)[C@@H](NC(=O)OC(C)(C)C)c4ccccc4)C[C@@](O)([C@@H](OC(=O)c4ccccc4)[C@H]21)C3(C)C [Docetaxel] | – | Approx [LOQ] [2, 3]: 0.5 ng/mL
14 | CO[C@H]1C[C@@H]2CC[C@@H](C)[C@@](O)(O2)C(=O)C(=O)N2CCCC[C@H]2C(=O)O[C@H]([C@H](C)C[C@@H]2CC[C@@H](OCCO)[C@H](OC)C2)CC(=O)[C@H](C)/C=C(\C)[C@@H](O)[C@@H](OC)C(=O)[C@H](C)C[C@H](C)/C=C/C=C/C=C/1C [Everolimus] | – | ESI/APCI [1, 4]: 29.2; Approx [LOQ] [2, 3]: 0.05 ng/mL
15 | COc1ccc2c3c1O[C@H]1C(=O)CC[C@H]4[C@@H](C2)N(C)CC[C@]314 [Hydrocodone] | 2 | –
16 | CC(=O)[C@@]1(O)CC[C@H]2[C@@H]3CCC4=CC(=O)CC[C@]4(C)[C@H]3CC[C@@]21C [Hydroxyprogesterone] | 0.01 | –

Row | SMILES | Approx [LOQ] [2] [ng/mL] | also measured
17 | CC(N)Cc1ccc2c(c1)OCO2 (stereo not shown) [MDA] | 50 | –
18 | CNC(C)Cc1ccc2c(c1)OCO2 (stereo not shown) [MDMA] | 50 | –
19 | CCC(=O)C(CC(C)N(C)C)(c1ccccc1)c1ccccc1 (stereo not shown) [Methadone] | 5 | ESI/APCI [1]: 14.5
20 | CN[C@@H](C)Cc1ccccc1 [Methamphetamine] | 50 | –
21 | CN(Cc1cnc2nc(N)nc(N)c2n1)c1ccc(C(=O)N[C@@H](CCC(=O)O)C(=O)O)cc1 [Methotrexate] | – | Approx [LOQ] [2, 3]: 0.5 ng/mL
22 | CN1CC[C@]23c4c5ccc(O)c4O[C@H]2[C@@H](O)C=C[C@H]3[C@H]1C5 [Morphine] | 20 | –
23 | COc1ccc2c3c1O[C@H]1[C@@H](O)C=C[C@H]4[C@@H](C2)NCC[C@@]341 [Norcodeine] | 2 | –
24 | COc1ccc2c3c1O[C@H]1C(=O)CC[C@@]4(O)[C@@H](C2)NCC[C@]314 [Noroxycodone] | 2 | –
25 | COc1ccc2c3c1O[C@H]1C(=O)CC[C@@]4(O)[C@@H](C2)N(C)CC[C@]314 [Oxycodone] | 2 | –
26 | CN1CC[C@]23c4c5ccc(O)c4O[C@H]2C(=O)CC[C@@]3(O)[C@H]1C5 [Oxymorphone] | 20 | –
27 | c1ccc(C2(N3CCCCC3)CCCCC2)cc1 [Phencyclidine] | 0.5 | –
28 | CC(=O)[C@H]1CC[C@H]2[C@@H]3CCC4=CC(=O)CC[C@]4(C)[C@H]3CC[C@]12C [Progesterone] | – | Approx [LOQ] [2, 3]: 0.01 ng/mL
29 | C=CC[C@@H]1/C=C(\C)C[C@H](C)C[C@H](OC)[C@H]2O[C@@](O)(C(=O)C(=O)N3CCCC[C@H]3C(=O)O[C@H](/C(C)=C/[C@@H]3CC[C@@H](O)[C@H](OC)C3)[C@H](C)[C@@H](O)CC1=O)[C@H](C)C[C@@H]2OC [Tacrolimus] | – | ESI/APCI [1, 4]: 21.7; Approx [LOQ] [2, 3]: 0.05 ng/mL
30 | CC[C@@H](c1cccc(O)c1)[C@@H](C)CN(C)C [Tapentadol] | 0.5 | ESI/APCI [1]: 7.1
31 | C[C@]12CC[C@H]3[C@@H](CCC4=CC(=O)CC[C@@]43C)[C@@H]1CC[C@@H]2O [Testosterone] | 0.05 | ESI/APCI [1]: 16.4
32 | COc1cccc(C2(O)CCCCC2CN(C)C)c1 (stereo not shown) [Tramadol] | 5 | –

Like-named read-outs stand apart in the source and are kept apart here.
